Taken from: PubChem BioAssay AID1259254 (NCATS, 2017)

Aim: 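Genome-wide screen for genes that prevent DNA re-replication in cancer cells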 (primary screen)
System: human HCT116 colorectal cancer cells
Knock-down reagent: single siRNA against human genes
Time to read-out: 3 days
Measurement: 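Nuclei stained with Hoechst and imaged; cell-cycle phase assigned by DNA content; G2 share scaled per plate, non-targeting siRNA 0%, GMNN siRNA 100%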
Scale: G2 robust z-score and G2 cells, % of GMNN control: higher = more G2 cells, more excess DNA replication; raw share of cells in G2: higher = larger share of cells with G2 DNA content
Active means: 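Active siRNAs have a G2 robust z of 5 or more median absolute deviations over the median, which in these data means about 38% or higher of GMNN control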
The whole screen tested about 59,000 reagents; shown is a part drawn at random. About 1,550 of them (2.6%) count as active. 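G2 share is only a proxy for re-replication; each gene was hit by three separate siRNAs, and active genes were retested.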 The raw values are shown without normalisation. Unmarked entries are inactive. The numbers tell different reagents against one gene apart. Not stated in the record: the amount of reagent.

The first 4 records, ahead of the listing:
gene | siRNA no. | G2 robust z-score | G2 cells, % of GMNN control | raw share of cells in G2 (%)
RCVRN (recoverin) | 1 | 1.3 | 12.1 | 9.14
RCVRN (recoverin) | 2 | -0.357 | 0.454 | 4.85
RCVRN (recoverin) | 3 | -0.485 | -0.443 | 4
RP1 (RP1 axonemal microtubule associated) | 1 | 1.13 | 10.9 | 9.62

The listing, from the start:
gene | siRNA no. | G2 robust z-score | G2 cells, % of GMNN control | raw share of cells in G2 (%)
RCVRN (recoverin) | 1 | 1.3 | 12.1 | 9.14
RCVRN (recoverin) | 2 | -0.357 | 0.454 | 4.85
RCVRN (recoverin) | 3 | -0.485 | -0.443 | 4
RP1 (RP1 axonemal microtubule associated) | 1 | 1.13 | 10.9 | 9.62
RP1 (RP1 axonemal microtubule associated) | 2 | 0.455 | 6.17 | 6.66
RP1 (RP1 axonemal microtubule associated) | 3 | 0.681 | 7.76 | 6.16
RPS16P10 (ribosomal protein S16 pseudogene 10) | 1 | 0.0967 | 3.65 | 5.53
RPS16P10 (ribosomal protein S16 pseudogene 10) | 2 | -0.944 | -3.68 | 1.98
RPS16P10 (ribosomal protein S16 pseudogene 10) | 3 | -0.161 | 1.84 | 3.84
BCL2L1 (BCL2 like 1) | 1 | 0.218 | 4.5 | 6.25
BCL2L1 (BCL2 like 1) | 2 | 1.4 | 12.8 | 9.64
BCL2L1 (BCL2 like 1) | 3 | -0.19 | 1.63 | 4.6
KCNK4 (potassium two pore domain channel subfamily K member 4) | 1 | 0.465 | 6.24 | 6.89
KCNK4 (potassium two pore domain channel subfamily K member 4) | 2 | -0.915 | -3.47 | 3.02
KCNK4 (potassium two pore domain channel subfamily K member 4) | 3 | 0.707 | 7.94 | 8.18
RPL7AP27 (ribosomal protein L7a pseudogene 27) | 1 | 5.68 (active) | 42.9 | 18.2
RPL7AP27 (ribosomal protein L7a pseudogene 27) | 2 | 6.23 (active) | 46.8 | 17.4
RPL7AP27 (ribosomal protein L7a pseudogene 27) | 3 | 2.76 | 22.4 | 10.9
ZNF25 (zinc finger protein 25) | 1 | 1.79 | 15.5 | 8.43
ZNF25 (zinc finger protein 25) | 2 | -0.238 | 1.3 | 3.62
ZNF25 (zinc finger protein 25) | 3 | -0.33 | 0.649 | 3.75
CCT3 (chaperonin containing TCP1 subunit 3) | 1 | 1.67 | 14.8 | 9.31
CCT3 (chaperonin containing TCP1 subunit 3) | 2 | 1.71 | 15 | 11.9
CCT3 (chaperonin containing TCP1 subunit 3) | 3 | 0.957 | 9.7 | 6.63
TEX38 (testis expressed 38) | 1 | -0.785 | -2.56 | 3.16
TEX38 (testis expressed 38) | 2 | 2.07 | 17.5 | 10
TEX38 (testis expressed 38) | 3 | 0.137 | 3.93 | 4.98
HAUS1 (HAUS augmin like complex subunit 1) | 1 | 0.997 | 9.98 | 8.09
HAUS1 (HAUS augmin like complex subunit 1) | 2 | -0.242 | 1.27 | 3.71
HAUS1 (HAUS augmin like complex subunit 1) | 3 | 0.234 | 4.61 | 3.17
PDE6B (phosphodiesterase 6B) | 1 | 0.415 | 5.89 | 6.71
PDE6B (phosphodiesterase 6B) | 2 | 0.142 | 3.97 | 5.5
PDE6B (phosphodiesterase 6B) | 3 | 2.52 | 20.7 | 9.73
SLC9A2 | 1 | -0.623 | -1.42 | 5.2
SLC9A2 | 2 | -0.7 | -1.96 | 3.88
SLC9A2 | 3 | 0.802 | 8.61 | 6.81
IGF2BP2 (insulin like growth factor 2 mRNA binding protein 2) | 1 | 0.829 | 8.8 | 9.52
IGF2BP2 (insulin like growth factor 2 mRNA binding protein 2) | 2 | -1 | -4.07 | 2.53
IGF2BP2 (insulin like growth factor 2 mRNA binding protein 2) | 3 | -0.843 | -2.96 | 5.31
ABCC5 (ATP binding cassette subfamily C member 5) | 1 | -1.03 | -4.25 | 1.75
ABCC5 (ATP binding cassette subfamily C member 5) | 2 | -0.721 | -2.1 | 3.9
ABCC5 (ATP binding cassette subfamily C member 5) | 3 | -0.785 | -2.55 | 4.24
H4C4 (H4 clustered histone 4) | 1 | -0.134 | 2.03 | 6.03
H4C4 (H4 clustered histone 4) | 2 | 0.352 | 5.44 | 6.05
H4C4 (H4 clustered histone 4) | 3 | 0.407 | 5.83 | 5.41
DKKL1 (dickkopf like acrosomal protein 1) | 1 | 0.793 | 8.55 | 5.95
DKKL1 (dickkopf like acrosomal protein 1) | 2 | -0.467 | -0.32 | 3.73
DKKL1 (dickkopf like acrosomal protein 1) | 3 | -0.382 | 0.28 | 4.65
